Data from the primary screen of doi:10.1371/journal.pone.0140310, rounded.

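Human melanoma cells were exposed to a pair of drugs for 72 h in 1,536-well plates and read by automated microscopy after fixing and staining. The read-out is cell count (nuclei) in % of the DMSO control; lower values mean stronger growth inhibition or killing. Concentrations were fixed for each drug; these are the lower of two levels, a fifth of the higher. These are primary screening values without error estimates.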 An unselected part of the screen is shown. A dash means that no value is listed here.

Drugs:
perifosine, 400 nM: CCCCCCCCCCCCCCCCCCOP(=O)([O-])OC1CC[N+](C)(C)CC1
decitabine, 100 nM: Nc1ncn([C@H]2C[C@H](O)[C@@H](CO)O2)c(=O)n1
IMD-0354, 16 nM: O=C(Nc1cc(C(F)(F)F)cc(C(F)(F)F)c1)c1cc(Cl)ccc1O
PF-562271, 80 nM: CN(c1ncccc1CNc1nc(Nc2ccc3c(c2)CC(=O)N3)ncc1C(F)(F)F)S(C)(=O)=O
vismodegib, 1000 nM: CS(=O)(=O)c1ccc(C(=O)Nc2ccc(Cl)c(-c3ccccn3)c2)c(Cl)c1
CHIR-265, 80 nM: Cn1c(Nc2ccc(C(F)(F)F)cc2)nc2cc(Oc3ccnc(-c4ncc(C(F)(F)F)[nH]4)c3)ccc21
nilotinib, 200 nM: Cc1cn(-c2cc(NC(=O)c3ccc(C)c(Nc4nccc(-c5cccnc5)n4)c3)cc(C(F)(F)F)c2)cn1
lenalidomide, 1000 nM: Nc1cccc2c1CN(C1CCC(=O)NC1=O)C2=O (configuration not stated)
ruxolitinib, 1000 nM: N#CC[C@H](C1CCCC1)n1cc(-c2ncnc3[nH]ccc23)cn1
BI-78D3, 200 nM: O=c1[nH]nc(Sc2ncc([N+](=O)[O-])s2)n1-c1ccc2c(c1)OCCO2
ENMD-2076, 40 nM: Cc1cc(Nc2cc(N3CCN(C)CC3)nc(/C=C/c3ccccc3)n2)n[nH]1

| # | Combination | A101D | LB2518-MEL | G-361 | C32 | LOX IMVI | COLO 829 | COLO 792 | A375 | MEL-HO | IST-MEL1 | A2058 | IPC-298 | COLO 800 |
|---|---|---|---|---|---|---|---|---|---|---|---|---|---|---|
| 1 | vismodegib + lenalidomide | 122 | 136 | 95.4 | 102 | 64.5 | 110 | 121 | 92.2 | 107 | 99.5 | 94.8 | 91.0 | 139 |
| 2 | ruxolitinib + PF-562271 | 112 | 128 | 84.0 | 90.4 | 133 | 130 | 84.9 | 87.9 | 99.8 | 95.7 | 73.1 | 101 | 114 |
| 3 | ruxolitinib + vismodegib | 107 | 137 | 97.3 | 95.0 | 105 | 93.4 | 87.7 | 98.1 | 96.9 | 100 | 88.6 | 98.1 | 82.3 |
| 4 | vismodegib + CHIR-265 | 65.3 | 60.2 | 67.2 | 95.6 | 81.8 | 76.7 | 64.3 | 61.4 | 87.1 | 89.0 | 86.8 | 79.6 | 18.9 |
| 5 | ENMD-2076 + ruxolitinib | 102 | 97.2 | 102 | 94.3 | 111 | 130 | 95.4 | 129 | 93.8 | 107 | 92.5 | 102 | 91.8 |
| 6 | ruxolitinib + decitabine | 104 | 98.8 | 92.9 | 107 | 83.4 | 71.5 | 78.1 | 83.4 | 88.4 | 73.8 | 79.2 | 74.4 | 114 |
| 7 | BI-78D3 + PF-562271 | 95.7 | 95.9 | 82.3 | 82.7 | 54.3 | 65.4 | 86.5 | 97.8 | 99.0 | 108 | 83.4 | 85.6 | 99.0 |
| 8 | decitabine + ENMD-2076 | 90.4 | 82.5 | 95.4 | 105 | 74.5 | 77.1 | 102 | 119 | 89.4 | 77.7 | 67.0 | 64.0 | 109 |
| 9 | perifosine + ruxolitinib | 122 | 134 | 113 | 117 | 148 | 106 | 112 | 96.9 | 80.9 | 107 | 94.0 | 104 | 136 |
| 10 | perifosine + PF-562271 | 109 | 103 | 96.5 | 91.8 | 120 | 94.9 | 99.6 | 54.5 | 103 | 117 | 82.7 | 101 | 140 |
| 11 | IMD-0354 + CHIR-265 | 78.9 | - | 84.7 | 77.2 | 75.2 | 93.8 | 47.2 | 84.8 | 78.5 | 93.9 | 62.1 | 77.1 | 103 |
| 12 | vismodegib + ENMD-2076 | 99.4 | 113 | 98.4 | 94.1 | 117 | 84.8 | 91.5 | 118 | 93.7 | 105 | 92.9 | 97.8 | 137 |
| 13 | ENMD-2076 + PF-562271 | 88.0 | 110 | 104 | 92.7 | 87.6 | 87.4 | 87.3 | 137 | 95.7 | 102 | 94.9 | 109 | 74.5 |
| 14 | PF-562271 + vismodegib | 106 | 121 | 103 | 81.1 | 127 | 109 | 88.4 | 99.3 | 92.1 | 104 | 80.9 | 96.1 | 77.0 |
| 15 | decitabine + perifosine | 92.4 | 93.5 | 83.2 | 94.2 | 109 | 76.4 | 89.8 | 80.3 | 89.1 | 78.2 | 93.7 | 70.0 | 81.4 |
| 16 | BI-78D3 + vismodegib | 95.4 | - | 112 | 102 | 101 | 104 | 114 | 89.0 | 96.9 | 100 | 95.0 | 98.0 | 74.6 |
| 17 | perifosine + ENMD-2076 | 102 | 102 | 121 | 95.6 | 152 | 80.8 | 98.6 | 62.0 | 120 | 108 | 88.1 | 102 | 92.6 |
| 18 | ruxolitinib + CHIR-265 | 65.9 | 89.2 | 94.1 | 90.4 | 82.3 | 120 | 64.4 | 75.6 | 81.7 | 91.2 | 73.0 | 85.1 | 83.3 |
| 19 | CHIR-265 + decitabine | 60.7 | 56.1 | 56.1 | 77.3 | 86.2 | 65.7 | 43.0 | 57.2 | 69.6 | 83.1 | 78.9 | 49.6 | 73.6 |
| 20 | PF-562271 + decitabine | 89.6 | 103 | 89.4 | 90.1 | 98.6 | 67.8 | 98.6 | 109 | 81.9 | 83.8 | 71.8 | 62.8 | 79.3 |
| 21 | nilotinib + CHIR-265 | 64.9 | 64.7 | 80.0 | 103 | 91.1 | 122 | 59.7 | 85.4 | 85.8 | 85.3 | 81.2 | 68.4 | 96.1 |
| 22 | nilotinib + PF-562271 | 98.4 | 86.2 | 68.7 | 92.7 | 176 | 99.0 | 91.8 | 120 | 99.1 | 96.4 | 90.3 | 103 | 106 |
| 23 | decitabine + BI-78D3 | 91.7 | 81.3 | 88.5 | 103 | 94.3 | 81.9 | 78.4 | 88.9 | 82.5 | 83.0 | 87.2 | 66.2 | 83.0 |
| 24 | IMD-0354 + lenalidomide | 121 | 88.7 | 95.5 | 119 | 111 | 92.8 | 103 | 101 | 108 | 97.7 | 92.4 | 96.6 | 83.9 |
| 25 | lenalidomide + ENMD-2076 | 98.7 | 85.8 | 96.0 | 97.8 | 102 | 74.0 | 87.2 | 90.0 | 98.9 | 106 | 89.5 | 104 | 73.3 |
| 26 | ENMD-2076 + nilotinib | 101 | 114 | 92.3 | 83.0 | 124 | 94.9 | 105 | 88.8 | 84.2 | 111 | 95.9 | 99.1 | 111 |
| 27 | decitabine + lenalidomide | 89.5 | 86.6 | 102 | 107 | 106 | 85.6 | 81.7 | 84.4 | 89.3 | 97.9 | 88.3 | 71.4 | 141 |
| 28 | nilotinib + decitabine | 86.8 | 88.0 | 101 | 98.2 | 105 | 103 | 101 | 78.9 | 90.5 | 95.9 | 79.3 | 82.1 | 81.6 |
| 29 | ENMD-2076 + IMD-0354 | 87.7 | 109 | 94.4 | 99.1 | 140 | 86.9 | 100 | 85.1 | 89.2 | 99.2 | 99.9 | 101 | 106 |
| 30 | PF-562271 + lenalidomide | 90.8 | 93.6 | 90.4 | 71.0 | 140 | 68.5 | 74.0 | 84.3 | 95.4 | 97.9 | 94.7 | 105 | 120 |
| 31 | perifosine + BI-78D3 | 96.6 | 92.3 | 97.7 | 107 | 181 | 86.5 | 113 | 86.7 | 113 | 96.1 | 103 | 100 | 114 |
| 32 | nilotinib + lenalidomide | 109 | 105 | 85.7 | 94.0 | 112 | 118 | 96.4 | 94.1 | 104 | 94.7 | 99.9 | 98.2 | 69.6 |
| 33 | CHIR-265 + BI-78D3 | 53.8 | 67.6 | 79.5 | 86.9 | 63.9 | 83.7 | 65.5 | 70.9 | 91.5 | 95.0 | 103 | 73.7 | 71.8 |
| 34 | decitabine + vismodegib | 96.8 | 82.8 | 107 | 107 | 99.9 | 71.6 | 103 | 99.4 | 84.7 | 90.8 | 95.9 | 65.8 | 86.0 |
| 35 | IMD-0354 + vismodegib | 104 | 98.9 | 108 | 89.1 | 97.4 | 122 | 104 | 115 | 102 | 101 | 98.3 | 99.6 | 84.6 |
| 36 | perifosine + CHIR-265 | 56.6 | 62.1 | 51.7 | 84.6 | 101 | 85.6 | 43.5 | 68.8 | 69.2 | 91.2 | 92.1 | 54.7 | 97.1 |
| 37 | lenalidomide + BI-78D3 | 95.7 | 87.1 | 96.8 | 99.7 | 109 | 69.7 | 104 | 95.3 | 94.8 | 104 | 108 | 94.4 | 76.6 |
| 38 | ruxolitinib + IMD-0354 | 127 | 105 | 89.5 | 124 | 91.8 | 116 | 103 | 97.6 | 95.2 | 90.9 | 89.3 | 93.7 | 111 |
| 39 | CHIR-265 + PF-562271 | 62.0 | 60.5 | 52.3 | 83.1 | 70.3 | 90.9 | 42.2 | 59.8 | 83.6 | 79.6 | 81.6 | 65.5 | 65.3 |
| 40 | perifosine + IMD-0354 | 103 | 102 | 94.9 | 98.9 | 110 | 87.3 | 100 | 107 | 96.4 | 94.4 | 91.2 | 97.5 | 92.4 |

Repeated from the top, 2 entries:

Combination,A101D,LB2518-MEL,G-361,C32,LOX IMVI,COLO 829,COLO 792,A375,MEL-HO,IST-MEL1,A2058,IPC-298,COLO 800
vismodegib + lenalidomide,122,136,95.4,102,64.5,110,121,92.2,107,99.5,94.8,91.0,139
ruxolitinib + PF-562271,112,128,84.0,90.4,133,130,84.9,87.9,99.8,95.7,73.1,101,114